The values that follow come from the supplement of paper PMC4862054.

Assay in all cases: normalised response (% of control), CellTox Green; higher = less cell death (100 = DMSO, 0 = benzethonium chloride kill control)
Conditions in all cases: incubation time: 72 h

The subject of one assay is BT-474. How it is done: (§1)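 DSRT, 72 h incubation, CellTox Green / CellTiter-Glo readout. Signal is normalised to DMSO and benzethonium chloride controls. Value is the normalised response at the lowest tested concentration.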
For a further assay, the system named is BT-549. How it is done: as §1
For the next assay, the system named is CAL-120. The method, then: as §1
A further assay relates to CAL-51. How it is done:
as §1

For the next assay, the system named is CAL-85-1. The method, then:
as §1

A further assay has as its system DU-4475. The method, then:
as §1

In another assay the test system is HCC1143. The method, then: as §1
The subject of a further assay is HCC1599. How it is done: as §1
The subject of another assay is HCC1937. How it is done: as §1
The subject of a further assay is HDQ-P1. The method, then: as §1
The next assay concerns Hs578T. The method, then: as §1
The next assay relates to MCF-10A. The method, then:
as §1

The test system of a further assay is MDA-MB-231. The method, then: as §1
In a further assay the test system is MDA-MB-436. The method, then:
as §1

The test system of a further assay is MDA-MB-453. The method, then: as §1
For the next assay, the system named is MDA-MB-468. The method, then:
as §1

For a further assay, the system named is MFM-223. How it is done: as §1
A further assay relates to CAL-148. The method, then:
as §1

The structures appear in SMILES notation. Most values lie at the level of the controls, where differences are scatter.

Turning to `C[C@@]1(C(=O)Nc2ccc(F)nc2)CCCN1c1nc(Nc2cc(C3CC3)n[nH]2)c2cccn2n1` (1 nM), the normalised response in the assay with BT-474 is 101%; in the assay on BT-549, 107%; in the assay with CAL-120 it was 99.5%; with CAL-51 it was 115%; in the assay with CAL-85-1 it was 93%; in the assay with DU-4475, 96.2%. For the same compound, the normalised response in the assay on HCC1143 is 86%; with HCC1599, 94.2%; in the assay with HCC1937, 70.2%; in the assay on HDQ-P1, 94.9%; in the assay on Hs578T it was 84.5%; with MCF-10A it was 94.4%. For the same compound, the normalised response with MDA-MB-231 worked out at 88%; in the assay with MDA-MB-436, 84.6%; with MDA-MB-453, 106%; in the assay on MDA-MB-468, 101%; in the assay on MFM-223, 94.2%.

With `C[C@]12CC[C@H](O)CC1=CC[C@@H]1[C@@H]2CC[C@]2(C)C(c3cccnc3)=CC[C@@H]12` [Abiraterone] (0.5 nM), the normalised response amounted to 104% with BT-474; 106% in the assay on BT-549; 98.8% in the assay with CAL-120; 105% with CAL-148; 115% in the assay on CAL-51; 106% in the assay with CAL-85-1. Moreover, the normalised response in the assay with DU-4475 stood at 100%; in the assay on HCC1143, 73.5%; with HCC1599, 98.4%; with HCC1937, 87.2%; in the assay with HDQ-P1, 105%; in the assay with Hs578T, 109%. In addition, the normalised response in the assay on MCF-10A turned out to be 103%; with MDA-MB-231, 102%; with MDA-MB-436, 81.6%; in the assay on MDA-MB-453, 117%; in the assay with MDA-MB-468, 127%; in the assay on MFM-223, 99.6%.

In the case of `COc1c(C)cnc(Cn2cnc3c(Cl)nc(N)nc32)c1C` [BIIB021] (1 nM), the normalised response in the assay on BT-474 stood at 94.9%; in the assay with BT-549, 101%; with CAL-120, 102%; in the assay on CAL-148 it was 103%; in the assay with CAL-51 it was 98.1%; in the assay on CAL-85-1, 103%. The normalised response was 102% with DU-4475; 99.7% in the assay with HCC1143; 100% in the assay on HCC1599; 114% with HCC1937; 94.1% in the assay with HDQ-P1; 106% with MCF-10A. Moreover, the normalised response amounted to 99.8% with MDA-MB-231; 90.7% in the assay on MDA-MB-436; 107% in the assay on MDA-MB-453; 86.4% in the assay with MDA-MB-468; 103% in the assay on MFM-223.

`O=c1[nH]c(=O)n([C@H]2C[C@H](O)[C@@H](CO)O2)cc1F` [Floxuridine] (1 nM): the normalised response in the assay on BT-474 stood at 102%; in the assay with BT-549, 103%; in the assay with CAL-120 it was 100%; in the assay with CAL-148, 89.5%; with CAL-51, 117%; in the assay on CAL-85-1, 96.2%. Also, the normalised response stood at 111% in the assay with DU-4475; 58.8% in the assay on HCC1143; 114% in the assay with HCC1599; 113% in the assay with HCC1937; 109% in the assay with HDQ-P1; 111% in the assay with Hs578T. For the same compound, the normalised response worked out at 109% with MCF-10A; 117% in the assay with MDA-MB-231; 83.6% with MDA-MB-436; 110% with MDA-MB-453; 100% with MDA-MB-468; 104% with MFM-223.

Regarding `CC1(C)NC(=O)N(c2ccc([N+](=O)[O-])c(C(F)(F)F)c2)C1=O` [Nilutamide] (1 nM), the normalised response in the assay on BT-474 turned out to be 102%; in the assay with BT-549, 90%; in the assay with CAL-120, 103%; with CAL-148, 106%; in the assay on CAL-51, 115%; with CAL-85-1, 98.4%. Moreover, the normalised response with DU-4475 amounted to 103%; with HCC1143, 121%; with HCC1599, 103%; in the assay with HCC1937, 64.1%; in the assay on HDQ-P1, 88.6%; in the assay with Hs578T, 74%. Besides, the normalised response was 89.8% in the assay with MCF-10A; 86.2% in the assay with MDA-MB-231; 76.8% in the assay on MDA-MB-436; 110% with MDA-MB-453; 103% in the assay on MDA-MB-468; 104% in the assay with MFM-223.

For the compound `C=CCc1cccc(/C=N/NC(=O)CN2CCN(Cc3ccccc3)CC2)c1O` [PAC-1] (1 nM), the normalised response in the assay with BT-474 is 98.9%; in the assay on BT-549, 104%; in the assay with CAL-120, 100%; in the assay on CAL-148, 104%; in the assay on CAL-51 it was 125%; in the assay on CAL-85-1 it was 94.5%. Further, the normalised response came out at 107% in the assay on DU-4475; 117% in the assay with HCC1143; 107% with HCC1599; 97.7% in the assay with HCC1937; 106% in the assay on HDQ-P1; 110% in the assay with Hs578T. The normalised response in the assay with MCF-10A was 92.9%; with MDA-MB-231 it was 103%; in the assay on MDA-MB-436, 80.7%; in the assay with MDA-MB-453 it was 62.7%; with MDA-MB-468 it was 101%; with MFM-223, 104%.

Consider `N#CC[C@H](C1CCCC1)n1cc(-c2ncnc3[nH]ccc23)cn1` [Ruxolitinib] (1 nM), for which the normalised response came out at 96.5% with BT-474; 98.3% with BT-549; 93.4% in the assay on CAL-120; 94% with CAL-148; 114% in the assay on CAL-51; 103% with CAL-85-1. Further, the normalised response was found to be 95.5% in the assay with DU-4475; 90% with HCC1143; 87.5% in the assay on HCC1599; 82.7% in the assay on HCC1937; 91.1% in the assay on HDQ-P1; 65.5% in the assay on Hs578T. For the same compound, the normalised response in the assay with MCF-10A is 94.2%; in the assay on MDA-MB-231 it was 93.9%; with MDA-MB-436, 89.2%; in the assay with MDA-MB-453, 93.4%; in the assay on MDA-MB-468, 60%; with MFM-223, 95.3%.

Consider `C[C@@H]1CCN(C(=O)CC#N)C[C@@H]1N(C)c1ncnc2[nH]ccc12` [Tofacitinib] (0.5 nM), for which the normalised response in the assay with BT-474 came to 106%; in the assay on BT-549, 99.6%; in the assay on CAL-120, 98.6%; in the assay with CAL-148, 107%; in the assay on CAL-51, 104%; in the assay with CAL-85-1, 96.4%. The normalised response with DU-4475 was 103%; in the assay with HCC1143, 87.7%; in the assay on HCC1599, 106%; in the assay with HCC1937 it was 91.5%; in the assay with HDQ-P1, 89.9%; in the assay on Hs578T, 85.1%. For the same compound, the normalised response in the assay with MCF-10A was 92.1%; with MDA-MB-231, 104%; with MDA-MB-436, 96.4%; in the assay with MDA-MB-453 it was 114%; with MDA-MB-468 it was 77.5%; in the assay on MFM-223 it was 66.5%.
